Assay results from patent US8677934B2 (Yissum Research Development Company of the Hebrew …, priority 2007, dated 2014).
Some of these results come from one statement about several compounds together. Positions of bridges follow the written chain, without caps; N, C: chain ends. Residues, ends and D or L forms follow the SMILES beside them.

Test system: D. melanogaster females
Test: Receptivity assay, ectopic expression in unmated females by heat-inducible GAL4 driver (hsp70-GAL4)
Assay type: in vivo, Drosophila melanogaster
Details: another independent line of each transgene, all 8 days examined
Method: Heat shock. Transgenic unmated females carrying the mutated T-SP (hsp70-GAL4; UAS-T-SPX) were placed in empty vials supplemented with moisture filter paper. Files were placed in water bath and heated gradually from 25 to 37° C. Flies were kept at this temperature for 1 hr thereafter returned to room temperature for one hour for recovery. Recovered heat-shocked flies were placed in food vials and kept at 25° C. until used.
Receptivity assay. Single unmated females of each homogenous UAS-T-SP transgene (see also Table 2) were placed in a food vial with single unmated 3-5-day-old males of the same UAS-T-SP transgene. Two parameters were monitored for one hour: (i) Receptivity rate—the number of female that mated; (ii) courtship behavior—whether or not female performed a rejection behaviors (kicking and extruding their ovipositor). […] For that a group of 10 females were isolated from each group and their behavior was inspected. […] These females will be exposed in the next day to newly unmated 3-5-day-old males (see section developing bioassay for additional details).
To examine the effect of the modified T-SP on female receptivity we first developed a sensitive bioassay that provided optimal conditions to test the transgenes. […]

Compound	re-mating rate [%]
T-SPQ: T-SP with arginine at position 25 substituted with glutamine, KPTKFPIPSPNPRDKWCQLNLGPAWGGRC (SEQ ID NO: 12); expressed transgenically	< 10
CC[C@H](C)[C@H](NC(=O)[C@@H]1CCCN1C(=O)[C@H](Cc1ccccc1)NC(=O)[C@H](CCCCN)NC(=O)[C@@H](NC(=O)[C@@H]1CCCN1C(=O)[C@@H](N)CCCCN)[C@@H](C)O)C(=O)N1CCC[C@H]1C(=O)N[C@@H](CO)C(=O)N1CCC[C@H]1C(=O)N[C@@H](CC(N)=O)C(=O)N1CCC[C@H]1C(=O)N[C@@H](CCCNC(=N)N)C(=O)N[C@@H](CC(=O)O)C(=O)N[C@@H](CCCCN)C(=O)N[C@@H](Cc1c[nH]c2ccccc12)C(=O)N[C@H]1CSSC[C@@H](C(=O)O)NC(=O)[C@H](CCCNC(=N)N)NC(=O)CNC(=O)CNC(=O)[C@H](Cc2c[nH]c3ccccc23)NC(=O)[C@H](C)NC(=O)[C@@H]2CCCN2C(=O)CNC(=O)[C@H](CC(C)C)NC(=O)[C@H](CC(N)=O)NC(=O)[C@H](CC(C)C)NC(=O)[C@H](CCCNC(=N)N)NC1=O [T-SP] (H-KPTKFPIPSPNPRDKWCRLNLGPAWGGRC-OH; disulfide 17-29; N-terminus and C-terminus assumed)	< 10
